# Primary screen of a compound library

Sequences of proteins named here, by UniProt entry; tags and fusion partners are left off. Residues count along the entry.
UniProt Q8IDJ8, 1-583: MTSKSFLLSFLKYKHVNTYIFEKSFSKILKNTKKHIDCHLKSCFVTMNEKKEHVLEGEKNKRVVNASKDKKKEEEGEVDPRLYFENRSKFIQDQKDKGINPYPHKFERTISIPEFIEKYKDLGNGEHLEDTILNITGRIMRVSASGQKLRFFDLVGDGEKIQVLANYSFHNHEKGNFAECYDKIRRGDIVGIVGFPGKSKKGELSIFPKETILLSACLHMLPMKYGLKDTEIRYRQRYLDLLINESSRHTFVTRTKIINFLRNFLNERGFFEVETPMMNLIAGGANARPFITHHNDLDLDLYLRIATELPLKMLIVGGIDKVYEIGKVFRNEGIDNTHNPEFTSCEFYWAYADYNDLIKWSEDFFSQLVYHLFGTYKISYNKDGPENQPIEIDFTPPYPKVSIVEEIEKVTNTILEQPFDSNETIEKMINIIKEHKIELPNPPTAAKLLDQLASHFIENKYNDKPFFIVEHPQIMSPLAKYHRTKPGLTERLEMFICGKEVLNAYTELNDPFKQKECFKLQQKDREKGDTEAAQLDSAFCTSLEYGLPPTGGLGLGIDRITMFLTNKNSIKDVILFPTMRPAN
UniProt P9WFT3, whole entry: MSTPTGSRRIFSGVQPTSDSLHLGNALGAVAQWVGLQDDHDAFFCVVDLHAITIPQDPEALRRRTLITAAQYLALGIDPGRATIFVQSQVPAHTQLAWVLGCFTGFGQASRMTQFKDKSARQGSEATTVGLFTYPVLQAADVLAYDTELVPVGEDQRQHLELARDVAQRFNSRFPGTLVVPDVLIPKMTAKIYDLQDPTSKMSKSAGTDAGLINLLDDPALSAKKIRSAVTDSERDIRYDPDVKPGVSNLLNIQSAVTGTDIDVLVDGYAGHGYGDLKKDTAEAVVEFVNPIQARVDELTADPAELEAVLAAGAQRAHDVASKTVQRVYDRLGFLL
UniProt P9WPC5, whole entry: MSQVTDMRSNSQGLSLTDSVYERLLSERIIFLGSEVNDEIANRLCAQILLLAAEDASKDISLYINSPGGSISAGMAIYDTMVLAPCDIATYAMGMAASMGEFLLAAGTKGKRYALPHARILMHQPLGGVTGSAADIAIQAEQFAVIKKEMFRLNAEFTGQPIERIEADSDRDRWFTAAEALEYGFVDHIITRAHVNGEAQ
UniProt P9WPC3, whole entry partner: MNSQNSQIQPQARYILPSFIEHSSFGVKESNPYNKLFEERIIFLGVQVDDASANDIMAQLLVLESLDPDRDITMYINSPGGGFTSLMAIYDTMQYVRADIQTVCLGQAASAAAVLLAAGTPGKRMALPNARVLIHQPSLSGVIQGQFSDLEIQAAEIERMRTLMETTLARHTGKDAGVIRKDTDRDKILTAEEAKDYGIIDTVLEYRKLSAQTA

Values are the deposited “Percent Effect”, in %.
The controls that fix the scale are not given in the record; negative values are as filed.
The compounds are a random part of those screened.
A dash means the value is not listed here; it may have been measured.

A: 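Enzyme assay of the cytosolic lysyl-tRNA synthetase in 384-well plates, read by luminescence. Target: Lysine-tRNA ligase, Plasmodium falciparum 3D7 (UniProt Q8IDJ8). Compounds at 30 µM. Higher reads as stronger inhibition, judged from the few compounds that gave an IC50. About 69,000 compounds were tested under these conditions; 0.071% (about 49) showed 50% or more at least once.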
B: 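Tryptophan-tRNA ligase, Mycobacterium tuberculosis (UniProt P9WFT3). Enzyme assay of tryptophanyl-tRNA synthetase; the read-out is not stated. Compounds at 10 µM. Higher most likely means stronger inhibition; the record gives no direction and few retests gave an IC50. Size under these conditions: about 65,000 compounds, about 64 of them at 50% or above in at least one test.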
C: 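ClpP1P2, Mycobacterium tuberculosis (UniProt P9WPC5 and UniProt P9WPC3). Protease assay of ClpP1P2, read by the AMC dye that it sets free. Concentration: 50 µM. Direction is inferred from only a few compounds that gave an IC50; most scored high, so higher reads as stronger inhibition. Most other retested compounds had strongly negative values. About 69,000 compounds were tested under these conditions; 0.015% (about 10) showed 50% or more at least once.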

SMILES,A,B,C
CNC(=O)C1Cn2ccnc2C2(CCN(C(=O)CC3CCCC3)CC2)O1 (configuration not stated),5.936,-5.383,-7.869
O=C(c1ccccc1)N1C[C@@H]2CCCO[C@@H]2[C@H](N2CCOCC2)C1,3.029,-3.453,3.621
Cc1cc(NCc2ccco2)nc2[nH]nc(N)c12,0.3879,-3.011,-5.763
CN1CCN(C2CCN(c3cnc4ccccc4n3)CC2)C1=O,-7.174,-35.96,9.675
COc1ccc(OCCN(C)Cc2nc3c(cnn3C)c(=O)[nH]2)cc1,-0.1013,-3.008,-30.5
COc1cc(CN(C(=O)Nc2cccnc2OC)C2CC2)ccc1O,4.718,2.798,6.485
CC(C)N(C)Cc1nnc2n1CCN(S(=O)(=O)C1CC1)CC2,3.392,-0.4933,0.9798
COc1ncccc1CNC(=O)c1ccco1,-0.6908,6.734,-3.177
CS(=O)(=O)CCCN(CCCO)C1CCc2ccccc21 (configuration not stated),3.279,2.314,-10.81
Cc1ccc(NC(=O)C2CSCN2C(=O)c2cnccn2)cc1C (configuration not stated),1.493,-4.144,-15.4
CCC(=O)N1CCCC(C(=O)c2cnn(-c3ccc(F)cc3)c2N)C1 (configuration not stated),-0.7541,-16.17,4.584
O=C1[C@@H]2CCN(Cc3ccncc3)C[C@@H]2OCCN1c1ccccc1,1.585,-3.348,6.738
CCCc1nccn1-c1cccc(C(C)O)c1 (configuration not stated),0.9194,1.238,-4.246
CCCC(=O)NCc1cccc(C(=O)OC)c1,3.521,-1.852,-2.769
N#Cc1ccc(S(=O)(=O)NC(=O)C2CC(c3ccccc3)=NO2)cc1 (configuration not stated),-0.8105,0.0809,-15.87
O=C(NCCc1ccc(Cl)cc1)c1coc(CN2CCOCC2)c1,5.877,3.367,-6.847
CCS(=O)(=O)N1CCCn2c(nc(CN3CCCC3)cc2=O)C1,3.353,-,-3.85
Cn1ccn2ncc(C(=O)NCc3cccnc3N3CCCC(O)C3)c12 (configuration not stated),10.41,1.903,-1.564
O=C(Nc1ccc(=O)n(Cc2ccccc2Cl)c1)C1CC1,10.06,6.39,-8.853
Cc1occc1CN(C)Cc1nc2c(cnn2C)c(=O)[nH]1,1.718,-2.968,-7.031
O=C(Cn1cccn1)N1CCc2[nH]nc(-c3ccc4c(c3)OCO4)c2C1,5.042,-3.314,-5.083
NC(=O)CCC1CCCN(c2ncnc3c2Cc2ccccc2OC3)C1 (configuration not stated),3.222,2.75,-37.81
Cc1nn(C)c(N(C)C)c1CNCCS(C)(=O)=O,-1.707,57.35,11.06
Cc1cnn(CC2CCCN2C(=O)c2cnc3n[nH]c(C)c3c2)c1 (configuration not stated),0.5323,3.996,-0.2366
Nc1ncc(C(=O)N2CCC(O)(CO)CC2)c(-c2ccccc2)n1,3.332,-6.563,-6.482
CNS(=O)(=O)CCCN1CCCC1c1noc(C)n1 (configuration not stated),1.842,-8.481,-2.049
Cc1nc(-c2ccc(S(=O)(=O)N3CCSC3)cc2)co1,3.297,-5.048,-23.7
CCOC(=O)[C@H]1[C@@H](O)C(=O)N(C)C12CCN(C(=O)c1ccccc1)CC2,2.954,-,-1.602
CCn1nc(C(=O)N2CCCC2c2noc(C)n2)ccc1=O (configuration not stated),-1.099,6.311,12.46
O=C(c1ccoc1)N1CCC(NCc2ccccc2Cl)CC1,6.95,3.008,3.061
Cc1noc([C@@H]2CCO[C@@H]3CCN(Cc4nccs4)C[C@@H]32)n1,0.8092,-0.9931,-2.351
Cn1nc(C(=O)NC2CC(C)(C)NC(C)(C)C2)cc1NC(=O)C1CC1,5.04,-4.063,-6.012
CN1C[C@@H]2CC[C@H](CC1=O)N2C(=O)c1cc2ccccc2[nH]c1=O,3.164,0.2721,-22.67
COCC1CC2(CCN(C(=O)c3ccc(F)cc3C)CC2)CO1 (configuration not stated),6.127,-10.4,8.822
CCOCCNC(=O)c1cnc(Sc2nccn2C)c(Cl)c1,0.1586,-5.301,-0.2831
CCOC(=O)c1c(NC(=O)CN2CCN(C(C)=O)CC2)sc(C)c1C,1.693,3.223,5.963
COCCn1ccc(NCc2sccc2C)n1,5.949,-7.988,-1.505
Cc1noc(C)c1-c1cncc(C2CCCN2Cc2ncccc2F)n1 (configuration not stated),2.366,-,-18.13
Cc1nnc(NCC(c2cccs2)N2CCCC2)c(C#N)c1C (configuration not stated),13.15,-2.379,-0.3863
CC(C)OCCCNC(=O)CS(=O)(=O)Cc1cccc(Cl)c1,3.734,-2.611,-11.52
NC(=O)C1CCCN1Cc1ccccc1NC(=O)CC(F)(F)F (configuration not stated),4.641,-1.679,-8.943
CCN(C)C(=O)NCC1(CN2CCOCC2)CCCCC1,5.273,-2.694,-9.389
Cc1nc(CN2CCO[C@@H]3CN(C(=O)CC4CC4)CC[C@@H]3C2)cs1,1.831,-1.569,6.63
CCn1nc(CC(C)C)cc1C(=O)NCCCN1CCOCC1,6.64,4.842,-0.002204
COCC(=O)N1CCC(C(=O)Nc2ccc(C(C)=O)cc2)CC1,4.091,-1.102,0.6426
CC(c1ccncn1)N(C)S(=O)(=O)NCc1ccccc1 (configuration not stated),-5.037,3.179,9.546
O=C(Nc1nncs1)N(Cc1cccc(F)c1)C1CC1,2.615,-6.089,5.981
Cn1cccc1C(=O)N1CCCCC1c1[nH]ncc1S(C)(=O)=O (configuration not stated),3.333,-,-24.08
CCSc1cc(C(=O)NCCNC(=O)Cc2ccccc2)ccn1,-0.1188,2.571,0.7569
Cc1ccc(OCC(O)Cn2ncc3cnn(C)c(=O)c32)cc1 (configuration not stated),0.9669,-3.631,6.965
Fc1ccc2c(c1)C1(CCNCC1)CC2NC1CC1 (configuration not stated),4.067,-,19.41
COc1ccc2c(c1)CC(NCCCn1cc(C)cn1)CC2 (configuration not stated),3.016,8.062,-11.18
CN1CCc2c(sc3c2C(=O)NC(/C=C/c2ccccc2)N3)C1 (configuration not stated),3.501,-3.717,-151.1
Cc1ccc(C)c(CS(=O)(=O)CC(=O)Nc2ccc(F)cc2F)c1,9.643,-0.5202,0.5464
CNC(=O)CCN(C)CC1(c2ccc(Br)cc2)CC1,3.868,1.651,-4.465
Cn1cc(C(O)CNC(=O)c2cc(Br)ccc2Cl)cn1 (configuration not stated),4.474,3.352,-2.267
CCc1nc(C2CCCN2Cc2cc(C)nc3ccccc23)no1 (configuration not stated),0.5689,-1.161,-45.46
CN(C)c1cccc(C(=O)Nc2cnn(Cc3ccncc3)c2)c1,2.461,4.516,-15.6
CC(C)c1ccc(O)c(C(=O)NC2CCN(c3ncccn3)CC2)c1,-1.125,-1.456,10.22
CCn1nc(Br)nc1Sc1ccccc1NC(C)=O,4.308,1.357,-8.882
CCN(Cc1ccc(C#N)cc1F)C(=O)C(C)(C)C,-1.3,0.09633,-14.35
Cc1cc(NCCc2nc(C)cs2)nc(-c2cccnc2)n1,2.13,3.028,12.58
Cc1ncc(CC(=O)N2CCCC(COc3ccccc3F)C2)c(=O)[nH]1 (configuration not stated),0.5374,-4.646,-7.109
O=C(NCCn1ccnc1)c1cc(Br)c[nH]1,2.687,-3.612,10.02
CC(NC(=O)N(C)Cc1ccc(Cl)s1)c1ccccn1 (configuration not stated),-0.5565,-1.657,7.511
Cn1cncc1-c1nnc([C@H]2CCN(CC(C)(C)C)C2)o1,3.789,-4.958,6.004
C[C@H](NC(=O)N1CCC(Cc2ccccc2)CC1)C(=O)O,0.09442,-0.678,-14.83
COc1cccc(S(=O)(=O)CCN2CCN(CC(F)F)CC2)c1,4.521,0.1564,-2.507
COc1cccc2c1ccn2CCNC(=O)C(C)C,5.469,2.01,5.817
COc1cc(C)nc(N2CCN(C(=O)c3ccccc3C)CC2)n1,-6.671,2.895,0.1895
CN(C)C[C@@H]1CN(C(=O)Cc2ccc3ccccc3c2)C[C@@H]1CO,6.714,1.102,-4.243

Some entries from above, unchanged:

SMILES	A	B	C
Cc1cc(NCCc2nc(C)cs2)nc(-c2cccnc2)n1	2.13	3.028	12.58
CC(C)c1ccc(O)c(C(=O)NC2CCN(c3ncccn3)CC2)c1	-1.125	-1.456	10.22
Cc1occc1CN(C)Cc1nc2c(cnn2C)c(=O)[nH]1	1.718	-2.968	-7.031
CCSc1cc(C(=O)NCCNC(=O)Cc2ccccc2)ccn1	-0.1188	2.571	0.7569
CC(c1ccncn1)N(C)S(=O)(=O)NCc1ccccc1 (configuration not stated)	-5.037	3.179	9.546
CCN(C)C(=O)NCC1(CN2CCOCC2)CCCCC1	5.273	-2.694	-9.389
NC(=O)C1CCCN1Cc1ccccc1NC(=O)CC(F)(F)F (configuration not stated)	4.641	-1.679	-8.943

Measurements from “University of Dundee, Small-Polar-MMV Screening Library” (2021), ChEMBL document CHEMBL3988442.